Test results published in patent US20250361307A1, “COMBINATION THERAPIES FOR TREATING HYPERPROLIFERATIVE DISORDERS” (X4 Pharmaceuticals, Inc., priority 2022, published 2025).
For at least one compound, name, drawing or mass did not settle the structure.

Assays:
[1] = target: T1, BCL-w (Homo sapiens, UniProt Q92843); conditions: cited from earlier work
T1 sequence (Q92843 1-193): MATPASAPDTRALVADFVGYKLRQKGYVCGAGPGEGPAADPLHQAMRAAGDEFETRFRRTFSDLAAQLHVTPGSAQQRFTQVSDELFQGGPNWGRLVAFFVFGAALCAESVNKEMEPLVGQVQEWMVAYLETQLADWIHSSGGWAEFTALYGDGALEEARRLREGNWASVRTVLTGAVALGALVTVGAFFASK

[2] = test system: hematological tumors; conditions: in vivo; cited from earlier work
[3] = test system: MWCL-1 cells; assay: Sensitivity of MWCL-1 cells in coculture with HS-5 BMSCs (apoptosis, IgM); format: cell-based; conditions: HS-5 BMSC coculture vs monoculture (FIG. 10A-D)
Protocol: BMSCs were cultured in 96-, 48-, or 24-well plates until 90% confluence. MWCL-1 cells (density≈2×10^5 cells/mL) were pretreated with indicated concentration of mavorixafor together with indicated concentrations of B-cell-targeted inhibitors in medium containing 4% FBS for 1 hour and transferred to the BMSC monolayer. Cells were coincubated for 48 or 72 hours followed by measurement of cell viability, apoptosis, IgM, and IL-6 release.
The IgM levels were quantitated using a human IgM Enzyme-linked immunosorbent assay (ELISA) kit (Abcam, #ab214568) according to the manufacturer's instructions. IL-6 levels were quantitated using an IL-6 ELISA MAX™ kit (BioLegend, #430515) per manufacturer's recommendations. For all ELISA kits, plates were developed with 3,3′,5,5′-tetramethylbenzidine (TMB) development solution or a biotinylated antihuman IL-6 detection antibody/avidin horseradish peroxidase (HRP) solution. The reaction was stopped with the stop solution, and absorbance was read at 450 nm with a microplate reader (Synergy™ HT, BioTek Instruments).
Cells were washed with PBS, resuspended in Annexin V binding buffer (BioLegend, #422201), and stained with Alexa Fluor® 647 Annexin V (BioLegend, #640943), propidium iodide (BD Pharmingen, #51-66211E), and CD45 antibody (BioLegend, #368502) for 15 minutes at room temperature and analyzed by flow cytometry.

Structure (SMILES)	interaction with BCL-w [1]	tumor growth [2]	sensitivity of MWCL-1 cells to the drug in HS-5 BMSC coculture [3]
CC1(C)CCC(CN2CCN(c3ccc(C(=O)NS(=O)(=O)c4ccc(NCC5CCOCC5)c([N+](=O)[O-])c4)c(Oc4cnc5[nH]ccc5c4)c3)CC2)=C(c2ccc(Cl)cc2)C1 [venetoclax]	only weakly	tumor growth inhibition in a dose-dependent fashion	
C=CC(=O)N1CCC([C@@H]2CCNc3c(C(N)=O)c(-c4ccc(Oc5ccccc5)cc4)nn32)CC1 [zanubrutinib]			reduced the sensitivity
